In article PMC10353047, “Guianensin, a Simulium guianense salivary protein, has broad anti-hemostatic and anti-inflammatory properties” (Frontiers in Immunology, 2023):
These are yes or no findings as the source states them, for the method shown. Binding can be weak; no strength is given.

What was measured:
[1] = biological target: T1, Guianensin (Simulium guianense) (UniProt F5GTK6); test: SPR; Biacore T200; Guianensin immobilised at 1250 RU on a CM5 chip by amine coupling; kinetic series of the analyte (500 nM starting concentration and six serial dilutions); contact 180 sec, 30 µl/min, dissociation 600 sec; global 1:1 model; both purified
T1 sequence: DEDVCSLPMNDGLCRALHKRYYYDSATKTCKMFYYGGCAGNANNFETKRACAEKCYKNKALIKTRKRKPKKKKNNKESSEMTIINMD

[2] = biological target: T1, Guianensin (Simulium guianense); test: SPR; Biacore T200; Guianensin immobilised at 1250 RU on a CM5 chip by amine coupling; binding analysis with all analytes at a single concentration of 100 nM; both purified

Substance | binding [1] | binding [2]
Plasmin (enzyme) | binds | binds
bovine factor Xa (enzyme) |  | binds
Factor X |  | no binding (tested: 100 nM)
mouse factor Xa (enzyme) |  | binds
Kallikrein (enzyme) | binds | binds
Gla-domainless factor Xa (human) (domain or fragment) |  | binds
human β-factor Xa (enzyme) |  | binds
